This is an account of results in publication PMC3079617.

The target of this assay is DBD (DNA binding domain of PhaR from Ralstonia eutropha, 1st to 106th amino acid) (Ralstonia eutropha H16). Briefly: two-hybrid; bacterial two-hybrid in E. coli XL1-Blue: DBD (PhaR 1-106)-bait on the phaP promoter, prey-PhaP on PHB granules made in vivo (phaCAB), lacZ reporter under the phaP promoter, read as beta-galactosidase activity; LB with 20 g/L glucose, 14 h, 37°C, 200 rpm.

No constants are given. Whether binding was seen depends on the method and setting. Where a sequence is shown, tags or fusion partners need not be part of it.

Turning to CGGLTDTLQAETDQLEDKKSALQTEIANLLKEKEKLEFILAAY (domain or fragment) [bFos-PhaP (bZIP domain of Fos fused to the PHA granule-associated protein PhaP)], the binding entry is “no binding”.
